Reference: ChEMBL document CHEMBL2424637, “Nucleophilic substitution reactions of 1,4-naphthoquinone and biologic properties of novel S-, S,S-, N-, and N,S-substituted 1,4-naphthoquinone derivatives” (2013)

Test system: Aspergillus niger
Test: Antifungal activity against Aspergillus niger F-1119 at 0.1% after 48 to 72 hrs by agar disk diffusion technique
Format: functional

## NYSTATIN
  inhibition zone (IZ): 20 mm
